In PubChem BioAssay AID2685 (National Center for Advancing Translational Sciences (NCATS), 2010):
Some of the results follow. Shown are side measurements of this screen, not its main read-out; they come without a call. Most of these compounds were active or inconclusive in the main read-out, so they are no random draw. Potencies come from curve fits of mixed quality, noted in brackets.

Experiment: qHTS Assay for Lipid Storage Modulators in Drosophila S3 Cells;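 for cell number change: cells counted by Cell Tracker Red CMTPX staining in the red channel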
Conditions: BODIPY lipid droplet fluorescence, 18-24 h; for cell number change: measured here: cell count max response, cells fed with added oleic acid
In short: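 Laser-scanning cytometry quantifies lipid droplet accumulation (500–530 nm total intensity; droplet/cell object ratio) in oleic acid-fed (400 uM added) Drosophila S3 cells treated with a concentration series. 20 uM Triacsin C defined 100% inhibition.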

[1] = measured here: cell number channel AC50, cells fed with added oleic acid
[2] = measured here: lipid fluorescence (Fed channel) AC50, cells fed with added oleic acid

| Structure (SMILES) | AC50 [1] | AC50 [2] | cell number change |
| --- | --- | --- | --- |
| O=C(O/N=C1\CCS(=O)(=O)c2sccc21)c1c(F)cccc1F | 0.103 µM [rising, full curve, poor fit] | 0.0731 µM [rising, full curve, poor fit] | – |
| Cc1nc(C(C)(C)O)n(-c2ccccc2)n1 | – | 6.51 µM [falling, single point] | 0.272% |
| CCOCCCn1c(SCc2ccccc2)nnc1-c1ccncc1 | – | 6.51 µM [falling, single point] | 11.3% |
| O=C(NC1=C(Nc2ccc(F)cc2)C(=O)c2ccccc2C1=O)c1ccc(Cl)cc1 | 14.6 µM [falling, partial curve] | 14.6 µM [falling, partial curve, poor fit] | -88.5% |
| CCCCNC(=O)CCNC(=O)c1ccc(C(C)(C)C)cc1 | – | 7.31 µM [falling, partial curve] | -20.1% |
| Cc1c(NC(=O)CN2CCN(c3cccc(Cl)c3)CC2)c(=O)n(-c2ccccc2)n1C | – | 0.082 µM [falling, full curve, poor fit] | -28.4% |
| CCOc1ccc2nc3sc(C(=O)N4CCN(C)CC4)c(N)c3cc2c1 | – | 0.651 µM [rising, partial curve] | 23.5% |
| CCN(CC)S(=O)(=O)c1ccc(N2CCOCC2)c(NC(=O)Cc2ccccc2)c1 | – | 1.46 µM [falling, partial curve, poor fit] | -22% |
| COc1ccc(/C=C/c2nc3cc(-c4ccccc4)ccc3o2)cc1O | – | 3.26 µM [rising, partial curve, poor fit] | 22.7% |
| Cn1cc(CN2CCN(c3ccccc3)CC2)c2ccccc21 | – | 7.31 µM [rising, partial curve, poor fit] | 20% |
| Cc1ccc(OCCOc2ccc(Br)cc2/C=N\NC(N)=O)cc1 | 29.1 µM [falling, single point] | 20.6 µM [falling, single point] | -50.2% |
| Cc1ccc(C)c(S(=O)(=O)N2CCCOC2CNC(=O)C(=O)NC2CC2)c1 (configuration not stated) | – | 0.13 µM [rising, full curve, poor fit] | 21.7% |
| CCOC(=O)CN(C(=O)CNC(=O)c1ccco1)C(C(=O)NC1CCCC1)c1ccccc1OCC (configuration not stated) | – | 29.1 µM [rising, single point] | -2.81% |
| CCOC(=O)c1c(C)[nH]c(C(=O)OCC(=O)c2c(N)n(C)c(=O)n(C)c2=O)c1C | – | 0.1 µM [rising, partial curve, poor fit] | 8.22% |
| O=C(N1CCCCC1)C1(c2ccccc2)CCCCC1 | 16.4 µM [falling, single point] | – | -34.4% |
| CCCC(c1nnnn1C(C)(C)CC)N1CCN(C2CCCC2)CC1 (configuration not stated) | 0.164 µM [rising, full curve, poor fit] | – | -5.23% |
| Cc1ccsc1CN(C)C(=O)CCc1nnc(COc2ccccc2)o1 | – | 29.1 µM [falling, single point] | -7.29% |
| N#C/C(=C(/O)COC(=O)c1cccnc1Cl)c1nc2ccccc2[nH]1 | – | – | 4.75% |
| COc1cccc(OC)c1OCCN(C)C | 20.6 µM [falling, single point] | – | -43.9% |
| CCCc1cc(=O)[nH]c(SCC(=O)c2c(N)n(C3CC3)c(=O)[nH]c2=O)n1 | – | 0.0291 µM [falling, full curve, poor fit] | -7.23% |

One compound at a time (already shown).
CCCc1cc(=O)[nH]c(SCC(=O)c2c(N)n(C3CC3)c(=O)[nH]c2=O)n1 in the list: AC50 [2]: 0.0291 µM [falling, full curve, poor fit]; cell number change: -7.23%
N#C/C(=C(/O)COC(=O)c1cccnc1Cl)c1nc2ccccc2[nH]1 in the list: cell number change: 4.75%
CCOCCCn1c(SCc2ccccc2)nnc1-c1ccncc1 in the list: AC50 [2]: 6.51 µM [falling, single point]; cell number change: 11.3%
Cc1ccc(OCCOc2ccc(Br)cc2/C=N\NC(N)=O)cc1 in the list: AC50 [1]: 29.1 µM [falling, single point]; AC50 [2]: 20.6 µM [falling, single point]; cell number change: -50.2%

Later entries.

| Structure (SMILES) | AC50 [1] | AC50 [2] | cell number change |
| --- | --- | --- | --- |
| COc1ccc(N2CC(C(=O)NCCc3c[nH]c4ccccc34)CC2=O)cc1 (configuration not stated) | – | – | 17.6% |
| CC1CCCCC1NC(=O)COC(=O)c1ccc2ncsc2c1 (configuration not stated) | – | 29.1 µM [rising, partial curve] | 9.77% |
| CC(=O)Oc1ccc2occ(C(=O)c3cccs3)c2c1 | – | 23.1 µM [falling, single point] | – |
| COCC(=O)Nc1nnc(COc2ccccc2)s1 | 0.092 µM [falling, full curve] | 0.164 µM [falling, full curve] | -16.1% |
| CCCCNC(=O)COC(=O)c1cc(C)oc1C | – | 29.1 µM [falling, partial curve] | 11.3% |
| Cc1cc(C)n2nc(SCCC(=O)NCCc3ccccc3)nc2n1 | 5.17 µM [rising, partial curve] | 29.1 µM [rising, partial curve, poor fit] | 104% |
| O=C(Cn1ccc2ccccc2c1=O)NCC(=O)N1CCN(c2ccccc2F)CC1 | – | 0.184 µM [falling, partial curve, poor fit] | -13.5% |
| COc1ccc(-c2cc3ccccc3n2CC(O)CN2CCCCC2)cc1 (configuration not stated) | 0.00411 µM [falling, full curve, poor fit] | 0.82 µM [falling, full curve, poor fit] | -19.3% |
| CC(NC(=O)Nc1ccccc1C(F)(F)F)C1CCCO1 (configuration not stated) | 29.1 µM [falling, single point] | – | -180% |
| COc1ccc(C2=NOC(C(=O)N3CCN(c4ccccc4OC)CC3)C2)cc1 (configuration not stated) | – | – | 11.8% |
| COC(=O)Cn1c(=NC(=O)c2sc3ccccc3c2Cl)sc2cc(S(N)(=O)=O)ccc21 | – | 0.092 µM [rising, full curve, poor fit] | -22.9% |
| CCCn1c(=O)c(C(=O)NNC(=O)c2ccc(Cl)cc2Cl)c(O)c2ccccc21 | – | 29.1 µM [falling, single point] | 4.2% |
| Cc1cc(=O)n2nc(N3CCCC(C(=O)N4CCc5ccccc54)C3)sc2n1 (configuration not stated) | 18.4 µM [rising, partial curve] | – | 105% |
| Cc1ccnc(NC(=O)c2c(O)c3ccccc3n(C)c2=O)c1 | 5.8 µM [falling, single point] | – | 8.35% |
| COc1ccc(C2C3=C(N=C4SCC(=O)N42)c2ccccc2CC3)cc1OC (configuration not stated) | – | 0.411 µM [rising, full curve, poor fit] | 5.51% |
| CC(OC(=O)CC1CCCCC1)C(=O)Nc1ccc(S(N)(=O)=O)cc1 (configuration not stated) | 14.6 µM [falling, partial curve, poor fit] | 29.1 µM [falling, single point] | -36.5% |
| COc1ccc(-c2nc(N)ncc2Oc2ccccc2Br)c(O)c1 | 16.4 µM [falling, single point] | 0.92 µM [rising, partial curve, poor fit] | -34.3% |
| COc1ccc(-c2csc(N(CC3CCCO3)C(=O)c3ccc(C)cc3)n2)cc1 (configuration not stated) | – | 20.6 µM [falling, single point] | -25% |
| Cc1noc(C)c1CCC(=O)N1CCCC(N2CCN(c3ccc(F)cc3)CC2)C1 (configuration not stated) | – | – | 16.1% |
| Cc1[nH]n(-c2ccccc2)c(=O)c1C(C[N+](=O)[O-])c1ccccc1Cl (configuration not stated) | – | – | -3.02% |

| Structure (SMILES) | AC50 [1] | AC50 [2] | cell number change |
| --- | --- | --- | --- |
| CCOC(=O)/C=C1\CN(Cc2ccc(OC)cc2)S(=O)(=O)c2ccccc21 | – | 2.06 µM [rising, partial curve] | 3.89% |
| CCn1cc(C(=O)O)c(=O)c2cc(F)c(N3CCN(C(=S)NC(=O)c4ccc(F)cc4)CC3)cc21 | – | – | -10.8% |
| N#Cc1c(Cl)nc(N/N=C/c2ccccc2)c(Cl)c1Cl | – | 16.4 µM [falling, single point] | -1.27% |
| O=C(NC1CCCCC1)C1CCCN1S(=O)(=O)c1ccc(F)cc1 (configuration not stated) | – | – | 20.2% |
| COC(=O)c1cc(COC(=O)c2nc3nccc(C)n3n2)oc1C | – | – | -2.39% |
| c1cc(SSc2ccncc2)ccn1 | 29.1 µM [falling, single point] | 29.1 µM [falling, single point] | -38.9% |
| CN(C)c1ccc(/C=N/n2c(COc3ccccc3)n[nH]c2=S)cc1 | – | 3.26 µM [rising, partial curve, poor fit] | 15.4% |
| O=c1[nH]c(C2CCCN(S(=O)(=O)Cc3ccccc3)C2)nc2c1nnn2Cc1cccc(Cl)c1 (configuration not stated) | 16.4 µM [rising, single point] | – | 138% |
| Cc1ccc(N2C(=O)CC(Sc3ccccc3C(=O)O)C2=O)cc1C (configuration not stated) | – | – | 16.1% |
| O=C(NCC1CCCN1S(=O)(=O)c1cccs1)c1c(F)cccc1F (configuration not stated) | – | – | 20.5% |
| O=C(Cn1cnc2c(cnn2-c2ccc(F)cc2)c1=O)N1CCCc2ccccc21 | – | 29.1 µM [falling, single point] | -14.2% |
| COc1ccc(/C(N)=N/OC(=O)CCCc2ccccc2)cc1 | 1.3 µM [falling, full curve] | 18.4 µM [rising, single point] | -57.3% |
| COc1ccc(NC(=O)Nc2ccccc2C)c(OC)c1 | 0.82 µM [rising, full curve, poor fit] | – | 31.4% |
| CCOc1ccc(C(=O)NCC(=O)NNC(=O)CN(C)S(=O)(=O)c2ccc(Cl)cc2)cc1 | 23.1 µM [rising, single point] | – | 187% |
| Cc1ccc(-c2csc3n[nH]c(=S)n23)cc1 | 32.6 µM [falling, partial curve] | 0.103 µM [falling, full curve, poor fit] | -67% |
| CN(C)C(CNC(=O)CCCN1C(=O)c2cccc3cccc(c23)C1=O)c1ccccc1 (configuration not stated) | – | 0.58 µM [rising, single point] | 20.7% |
| CCCn1c(SCC(=O)N2c3ccccc3Sc3ccccc32)nc2c1c(=O)n(C)c(=O)n2C | – | 0.731 µM [rising, single point] | 27.1% |
| C=CCOc1ccc(CNc2nn[nH]n2)cc1 | – | 3.26 µM [falling, single point] | 1.53% |
| CC(C)C(NS(=O)(=O)c1ccc2c(c1)C(C)(C)C(=O)N2C)C(=O)NCc1ccccc1Cl (configuration not stated) | – | 0.82 µM [rising, full curve, poor fit] | 2.99% |
